Measured values published in PubChem BioAssay (NCATS).
The shares of active, inactive and inconclusive entries below differ from those in the screen. Potencies beside an inconclusive call are fits to weak or partial responses and may not hold up. Calls of active or inactive are those of the source. Unless noted, calls follow the shape of the dose curve; as a rule, active = well fitted curve in the direction sought with a large enough effect; inconclusive = small, poorly fitted or top-dose-only effect, or another doubt; inactive = no such curve, though single readings can be large; an effect the other way counts as inactive or inconclusive.

Chains of the proteins cited; added tags and fusions are not shown.
UniProt P11712, whole entry, looked up: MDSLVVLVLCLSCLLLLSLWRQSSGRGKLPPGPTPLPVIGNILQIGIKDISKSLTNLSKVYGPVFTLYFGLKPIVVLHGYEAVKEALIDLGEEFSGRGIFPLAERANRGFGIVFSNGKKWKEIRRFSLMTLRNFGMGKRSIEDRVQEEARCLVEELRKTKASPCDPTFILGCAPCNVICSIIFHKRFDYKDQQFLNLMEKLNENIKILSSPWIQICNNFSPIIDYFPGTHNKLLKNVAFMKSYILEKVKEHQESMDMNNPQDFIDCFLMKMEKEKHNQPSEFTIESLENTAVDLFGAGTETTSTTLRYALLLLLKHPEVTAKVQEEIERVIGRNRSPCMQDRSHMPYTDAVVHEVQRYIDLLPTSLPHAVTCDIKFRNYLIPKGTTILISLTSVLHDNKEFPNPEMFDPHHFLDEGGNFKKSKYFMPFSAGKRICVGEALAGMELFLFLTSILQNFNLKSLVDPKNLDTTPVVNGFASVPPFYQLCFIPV
UniProt P33261, whole entry, looked up: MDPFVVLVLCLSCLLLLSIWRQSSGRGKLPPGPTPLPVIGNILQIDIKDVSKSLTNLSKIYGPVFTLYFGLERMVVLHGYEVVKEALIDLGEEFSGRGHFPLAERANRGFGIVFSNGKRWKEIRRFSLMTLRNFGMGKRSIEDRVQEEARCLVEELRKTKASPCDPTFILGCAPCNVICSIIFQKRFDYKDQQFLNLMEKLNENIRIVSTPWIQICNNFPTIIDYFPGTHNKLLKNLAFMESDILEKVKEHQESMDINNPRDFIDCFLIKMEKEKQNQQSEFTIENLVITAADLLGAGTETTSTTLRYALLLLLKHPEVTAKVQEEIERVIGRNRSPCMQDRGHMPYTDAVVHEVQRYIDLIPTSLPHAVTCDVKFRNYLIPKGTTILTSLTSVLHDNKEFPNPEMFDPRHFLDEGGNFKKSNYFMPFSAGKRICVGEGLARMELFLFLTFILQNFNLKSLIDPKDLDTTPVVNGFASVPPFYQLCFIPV
UniProt P05177, whole entry, looked up: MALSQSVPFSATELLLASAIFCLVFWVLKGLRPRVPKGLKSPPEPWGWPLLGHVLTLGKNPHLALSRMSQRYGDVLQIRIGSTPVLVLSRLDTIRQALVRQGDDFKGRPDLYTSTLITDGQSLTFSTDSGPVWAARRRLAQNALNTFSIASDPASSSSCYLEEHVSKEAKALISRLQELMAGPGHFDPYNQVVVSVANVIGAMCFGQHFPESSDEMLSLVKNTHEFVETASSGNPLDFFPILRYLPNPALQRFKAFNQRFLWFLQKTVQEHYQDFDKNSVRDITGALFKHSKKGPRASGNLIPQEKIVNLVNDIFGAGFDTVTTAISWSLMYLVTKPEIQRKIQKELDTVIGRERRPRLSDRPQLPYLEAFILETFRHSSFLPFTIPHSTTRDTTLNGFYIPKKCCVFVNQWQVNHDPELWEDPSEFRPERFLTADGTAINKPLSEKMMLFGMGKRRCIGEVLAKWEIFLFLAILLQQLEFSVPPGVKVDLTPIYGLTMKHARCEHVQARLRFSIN

Assays:
[1] = Quantitative High-Throughput drug screen in 47 multiple myeloma cell lines against the NCATS MIPE library collection: UTMC2_PLB cell viability assay (AID 1919868); settings: CellTiter-Glo ATP luminescence, 48 h; series mostly up to 45.8 µM; also: nearly all actives have a fitted effect of over 55% in size
How it was run: (§1)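 Plated at 500 cells per well, myeloma lines received MIPE 4.0 compounds by pin tool. Following 48 h culture at 37 °C, CellTiter-Glo luminescence gave viability relative to DMSO and media-only controls.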

[2] = Quantitative High-Throughput drug screen in 47 multiple myeloma cell lines against the NCATS MIPE library collection: RPMI8226_ATCC cell viability assay (AID 1919871); also: nearly all actives have a fitted effect of over 30% in size
How it was run: as §1

[3] = Quantitative High-Throughput drug screen in 47 multiple myeloma cell lines against the NCATS MIPE library collection: OPM2_DSMZ cell viability assay (AID 1919872); also: nearly all actives have a fitted effect of over 30% in size
How it was run: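 Steps: seed 500 cells per well; pin-transfer MIPE 4.0 library; incubate 48 h at 37C, 5% CO2, humidified; add CellTiter-Glo, 5 min room temperature; read luminescence.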

[4] = Quantitative High-Throughput drug screen in 47 multiple myeloma cell lines against the NCATS MIPE library collection: KMS28BM_JCRB cell viability assay (AID 1919874); also: nearly all actives have a fitted effect of over 35% in size
How it was run: as §1

[5] = qHTS for identification of novel therapeutic agents for treatment of microphthalmiaassociated transcription factor (MiT) renal cell carcinoma (RCC) (AID 1963991; calls by dose curve); settings: TFE3-RCC UOK109 viability, CellTiter-Glo, 48 h; active = Z-AUC below -0.8 in all three lines
How it was run: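 Three TFE3-fusion RCC cell lines (UOK109, UOK124, UOK145), 500 cells/well, were exposed to the 1912-compound MIPE 4.0 library for 48 hours at 37 C. Viability was read by CellTiter-Glo luminescence, normalised to DMSO (100%) and empty wells (0%), with 11-concentration curve fits.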

[6] = Quantitative High-Throughput drug screen in 47 multiple myeloma cell lines against the NCATS MIPE library collection: PE2_PLB cell viability assay (AID 1919869); settings: PE2_PLB myeloma cells viability, ATP luminescence, 48 h; viability (% of control): at 45.8 µM (top of the series); also: nearly all actives have a fitted effect of over 35% in size
How it was run: as §1

[7] = target: Cytochrome P450 2C9 (Homo sapiens) (UniProt P11712); assay: qHTS for inhibitors of CYP2C9 against the NCATS DSHEA and TCM libraries (AID 1919973)
How it was run: (§2)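 Luminescent P450-Glo readout. Enzyme plus pro-luciferin substrate in manufacturer buffer (typically 100 mM KPO4); 15 min RT preincubation; 1x NADPH regenerating system, 30-45 min RT in the dark; detection reagent 30 min.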

[8] = target: Cytochrome P450 2C19 (Homo sapiens) (UniProt P33261); assay: qHTS for inhibitors of CYP2C19 against the NCATS DSHEA and TCM libraries (AID 1919974); settings: CYP2C19 enzyme inhibition, luminescence qHTS;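 also: luminescence from luciferin released by CYP2C19 oxidation of a pro-luciferin substrate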
How it was run: as §2

[9] = target: Cytochrome P450 1A2 (Homo sapiens) (UniProt P05177); assay: qHTS for inhibitors of CYPIA2 against the NCATS DSHEA and TCM libraries (AID 1919976); settings: recombinant CYP1A2 enzyme activity, luminescence
How it was run: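 Human CYP1A2 with its pro-luciferin substrate in supplier buffer (typically 100 mM KPO4) was pre-incubated with compounds 15 min at RT. Reaction was started with 1x NADPH regeneration solution and run 30-45 min at RT in the dark, then luminescence was read after P450-Glo detection reagent (30 min RT).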

[10] = Quantitative High-Throughput drug screen in 47 multiple myeloma cell lines against the NCATS MIPE library collection: PCM6_Riken cell viability assay (AID 1919870); settings: CellTiter-Glo ATP, 48 h; viability (% of control): at 45.8 µM (top of the series); also: nearly all actives have a fitted effect of over 30% in size
How it was run: as §1

[11] = Quantitative High-Throughput drug screen in 47 multiple myeloma cell lines against the NCATS MIPE library collection: KMS11_JCRBsus cell viability assay (AID 1919873); settings: KMS11 myeloma viability, CellTiter-Glo ATP luminescence, 48 h; viability (% of control): at 45.8 µM (top of the series); also: nearly all actives have a fitted effect of over 50% in size
How it was run: as §1

Measured: Potency
Potency is read from the fitted curve at half-maximal effect.

O=C(NCc1ccccc1)c1csc(Nc2ccncn2)n1
active: [1] 16.6 µM | [2] 20.9 µM | [4] 18.7 µM
inconclusive: [3] 37.2 µM [cytotoxic, single point] | [5] 23.5 µM

O=c1c(-c2ccc(O)cc2)coc2cc(O[C@@H]3O[C@H](CO)[C@H](O)[C@H](O)[C@H]3O)ccc12
inconclusive: [1] 0.264 µM [rising, full curve, poor fit] | [7] 3.55 µM [inhibitor, full curve, poor fit] | [8] 3.55 µM [inhibitor, full curve] | [9] 3.16 µM [inhibitor, full curve]
inactive: [6] | [2] | [4]

COc1cc2nc(-c3ccc(N4CCN(C)CC4)cc3)nc(NCCN3CCOCC3)c2cc1OC
active: [6] 0.148 µM | [10] 0.166 µM | [3] 3.32 µM | [11] 0.0935 µM | [5] 1.18 µM

Reprinted at random: 2 records from the list, in no set order.
COc1cc2nc(-c3ccc(N4CCN(C)CC4)cc3)nc(NCCN3CCOCC3)c2cc1OC
active: [6] 0.148 µM | [10] 0.166 µM | [3] 3.32 µM | [11] 0.0935 µM | [5] 1.18 µM

O=C(NCc1ccccc1)c1csc(Nc2ccncn2)n1
active: [1] 16.6 µM | [2] 20.9 µM | [4] 18.7 µM
inconclusive: [3] 37.2 µM [cytotoxic, single point] | [5] 23.5 µM

(list continues)

CC1=C(CO)C(=O)O[C@@H]([C@@H](C)[C@H]2CC[C@H]3[C@@H]4C[C@H]5O[C@]56[C@@H](O)C=CC(=O)[C@]6(C)[C@@H]4CC[C@]23C)C1
active: [1] 0.296 µM | [3] 0.296 µM | [4] 0.132 µM
inconclusive: [5] 2.35 µM [falling, full curve]

Oc1cc(O)cc(C=Cc2ccc(O)c(O)c2)c1
inconclusive: [1] 13.2 µM [cytotoxic, partial curve, poor fit] | [3] 37.2 µM [cytotoxic, single point] | [11] 10.5 µM [cytotoxic, partial curve, poor fit] | [4] 20.9 µM [cytotoxic, partial curve, poor fit] | [5] 16.6 µM [falling, partial curve]
active: [6] 4.18 µM

CC1(C)OC2=C(C(=O)c3ccccc3C2=O)[C@H](NCc2ccccc2)[C@H]1O
inconclusive: [5] 4.69 µM [falling, full curve]
active: [1] 2.35 µM | [3] 8.33 µM | [4] 2.96 µM

O=C1c2ccccc2-[n+]2ccc3c([nH]c4ccccc43)c21
active: [1] 1.32 µM | [2] 2.96 µM | [11] 1.05 µM | [4] 1.32 µM | [5] 1.66 µM

Cc1ccccc1C(C(=O)NC1CCCC1)N(C(=O)Cn1cnc2ccccc21)c1cccc(F)c1 (centres undefined)
inconclusive: [1] 9.35 µM [cytotoxic, partial curve, poor fit] | [6] 20.9 µM [cytotoxic, partial curve] | [3] 3.32 µM [cytotoxic, full curve, poor fit] | [11] 13.2 µM [cytotoxic, partial curve]

Cc1ccccc1C(C(=O)NC1CCCCC1)N(C(=O)Cn1ccnc1C)c1cccc(F)c1 (centres undefined)
inconclusive: [1] 8.33 µM [cytotoxic, partial curve, poor fit] | [10] 23.5 µM [cytotoxic, single point] | [2] 18.7 µM [cytotoxic, partial curve, poor fit] | [3] 10.5 µM [cytotoxic, partial curve, poor fit] | [4] 16.6 µM [cytotoxic, partial curve, poor fit]

CN(C)c1ccc(Nc2nc(N)n(C(=O)c3c(F)cccc3F)n2)cc1
inconclusive: [1] 9.35 µM [cytotoxic, partial curve, poor fit] | [3] 23.5 µM [cytotoxic, single point] | [11] 37.2 µM [cytotoxic, single point] | [4] 37.2 µM [cytotoxic, single point] | [5] 6.62 µM [falling, partial curve]

Cc1[nH]c(C=C2C(=O)Nc3ccccc32)c(C)c1CCC(=O)O
active: [1] 0.935 µM | [5] 0.833 µM
inconclusive: [3] 37.2 µM [cytotoxic, single point] | [11] 37.2 µM [cytotoxic, single point]

CN(C1CCc2c(c3ccccc3n2CC(=O)O)C1)S(=O)(=O)c1ccc(F)cc1 (centres undefined)
inconclusive: [1] 37.2 µM [rising, partial curve, poor fit] | [11] 5.26 µM [cytotoxic, partial curve, poor fit] | [5] 0.526 µM [falling, full curve]
inactive: [6] | [2]
